# Experimental data taken from PMC6720506.
# For at least one entry, the source does not settle the construct or the ends of the probe. For part of these data: Negatives hold for the conditions tested.
# What was measured:
# GST-BrTCP21 [1] = assay: competition with a labelled probe; conditions: molar excess of unlabeled WT probe eliminated the complex; EMSA: binding buffer (composition not stated), 25 min at 30 °C, 6% native PAGE, biotin chemiluminescence; pH and salt not given; recombinant protein; protein details: N-terminal GST (pGEX-4T-1); label: 5' biotin (labeled probe), unlabeled as competitor
# GST-BrTCP21 [2] = assay: EMSA; conditions: EMSA: binding buffer (composition not stated), 25 min at 30 °C, 6% native PAGE, biotin chemiluminescence; pH and salt not given; recombinant protein; protein details: N-terminal GST (pGEX-4T-1); label: 5' biotin (labeled probe), unlabeled as competitor
# GST = GST (UniProt P08515); assay: EMSA; conditions: EMSA: binding buffer (composition not stated), 25 min at 30 °C, 6% native PAGE, biotin chemiluminescence; pH and salt not given; recombinant protein; protein details: GST only; label: 5' biotin (labeled probe), unlabeled as competitor
sequence,measurement,setting,value
GGCATTGTTATCTTTGTGATGGGCCCCACAAAGCCCAAGATAGCTTTTCC (double strand) [BrGA20ox3 promoter WT probe],binding result,GST-BrTCP21 [1],binds
same,binding result,GST-BrTCP21 [2],binds
same,binding result,GST,no binding
